Record: PubChem BioAssay AID1159584 (Peter MacCallum Cancer Centre, 2016)
Here is a random part of about 18,000 reagents. Further read-outs or replicates are left out here. Not given: the amount of reagent, the time to read-out.

Screen: 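Genes that CDH1-null MCF10A cells selectively depend on to survive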 (primary screen)
Cells: human MCF10A breast epithelial cells, parental and CDH1-null
Knock-down reagent: siRNA against human genes
Measured: 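Cell viability by CellTiter-Glo ATP luminescence, each line scaled to the mean of mock wells across plates, then CDH1-null over parental ratio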
Scale: CDH1-null / parental viability ratio: higher = CDH1-null cells survive relatively better than parental; CDH1-null viability vs mock: higher = more viable CDH1-null cells

Gene | CDH1-null / parental viability ratio | CDH1-null viability vs mock (fraction of mock)
TRPC3 | 1.1 | 0.89
KRCC1 | 0.91 | 0.86
SLC30A5 | 1.1 | 1.19
UBASH3B | 0.79 | 0.74
MZT1 | 1.04 | 0.85
LRRC66 | 1.46 | 1.17
DRAXIN | 0.91 | 0.75
SPIN2A | 0.99 | 0.95
PPP1R13B | 1.37 | 0.92
CLK1 | 0.93 | 0.8
UBE2E1 | 1.14 | 0.89
EMSY | 1 | 0.76
ALDH4A1 | 0.98 | 1.02
GLOD5 | 1.03 | 0.94
KRT71 | 0.91 | 0.67
UFSP1 | 0.9 | 0.57
HDAC11 | 1.07 | 0.94
CLTC | 0.92 | 0.66
REXO4 | 0.85 | 0.72
CACNA1C | 1.09 | 0.88
TCHHL1 | 1.04 | 0.85
PLEKHG1 | 1.28 | 0.59
IBTK | 1.13 | 0.85
ARL6IP6 | 1.14 | 0.8
RBM6 | 1.11 | 1.26
PCSK7 | 1.18 | 0.59
CIMAP1B | 1.6 | 0.72
CCNYL1 | 0.87 | 1
KRT6C | 0.87 | 0.67
TMEM42 | 0.96 | 0.68
ATP8B4 | 0.96 | 0.76
DUT | 1.03 | 0.91
ANKRD9 | 0.96 | 0.85
ZZEF1 | 0.88 | 0.6
MYO15A | 1 | 0.75
RASGRF1 | 1.12 | 0.74
SPATA46 | 1.17 | 1.21
ARPC1B | 1 | 0.32
ANXA6 | 0.92 | 0.82
BMAL2 | 1.01 | 0.94
DEFB135 | 0.84 | 0.77
TYW1 | 1.18 | 0.87
PLCG1 | 0.79 | 0.6
ANO9 | 1.06 | 0.92
PIK3C3 | 0.98 | 0.86
GALT | 1.11 | 0.78
LPA | 1.15 | 0.84
INSR | 0.92 | 0.7
ASAH1 | 1.35 | 0.66
XRN2 | 0.93 | 0.89
CCDC157 | 1.29 | 0.72
TAFA4 | 1.13 | 0.97
ACYP2 | 1.15 | 1.08
AGRP | 1.2 | 0.9
GPX1 | 1.04 | 0.88
DNM2 | 1.17 | 1.08
IQSEC1 | 0.64 | 0.37
RLIG1 | 1.16 | 0.74
GHRL | 1.58 | 0.6
FBXO15 | 1 | 0.86
DUSP11 | 1.41 | 0.9
CEACAM8 | 0.94 | 0.78
SAMM50 | 1.16 | 0.72
FNTA | 1.25 | 1.05
IGIP | 1.19 | 1.02
ANKRD26 | 1.06 | 0.85
DYNLT2 | 1.12 | 1
C1QTNF3 | 0.98 | 1

9 of these entries, set out differently.
LRRC66
- CDH1-null / parental viability ratio: 1.46
- CDH1-null viability vs mock (fraction of mock): 1.17

DRAXIN
- CDH1-null / parental viability ratio: 0.91
- CDH1-null viability vs mock (fraction of mock): 0.75

SPIN2A
- CDH1-null / parental viability ratio: 0.99
- CDH1-null viability vs mock (fraction of mock): 0.95

PPP1R13B
- CDH1-null / parental viability ratio: 1.37
- CDH1-null viability vs mock (fraction of mock): 0.92

CLK1
- CDH1-null / parental viability ratio: 0.93
- CDH1-null viability vs mock (fraction of mock): 0.8

UBE2E1
- CDH1-null / parental viability ratio: 1.14
- CDH1-null viability vs mock (fraction of mock): 0.89

EMSY
- CDH1-null / parental viability ratio: 1
- CDH1-null viability vs mock (fraction of mock): 0.76

ALDH4A1
- CDH1-null / parental viability ratio: 0.98
- CDH1-null viability vs mock (fraction of mock): 1.02

GLOD5
- CDH1-null / parental viability ratio: 1.03
- CDH1-null viability vs mock (fraction of mock): 0.94
